A short description of the series: general procedure: solution-phase peptide synthesis; EDC/HOBt; PyBOP/diisopropylethylamine. As to conditions: late stage modification step.

Here are results for seven substances from patent publication US20080306040A1 (priority 2005, published 2008).

For “tert-Butyl {3-[(8S,11S,14S)-14-[(tert-butoxycarbonyl)amino]-17-hydroxy-8-(2-{[2-hydroxy-3-(L-ornithylamino)propyl]amino}-2-oxoethyl)-10,13-dioxo-9,12-diazatricyclo[14.3.1.1^2,6]henicosa-1(20), 2(21),3,5,16,18-hexaen-11-yl]propyl}carbamate”, the step yield (hydrochloride) is 99% of theory.

Consider “N^2-{[(8S,11S,14S)-14-Amino-11-(3-aminopropyl)-17-hydroxy-10,13-dioxo-9,12-diazatricyclo[14.3.1.1^2,6]henicosa-1(20),2(21), 3,5,16,18-hexaen-8-yl]acetyl}-N-[(5S)-5-amino-6-hydroxyhexyl]-L-ornithinamide tetrahydrochloride”, for which the step yield (tetrahydrochloride) is listed as 97% of theory.

Turning to “N^2-{[(8S,11S,14S)-14-Amino-11-(3-aminopropyl)-17-hydroxy-10,13-dioxo-9,12-diazatricyclo[14.3.1.1^2,6]henicosa-1(20), 2(21),3,5,5,16,18-hexaen-8-yl]acetyl}-N-(2-aminoethyl)-L-ornithinamide tetrahydrochloride”, under “tetrahydrochloride”, the step yield was 93% of theory.

Regarding “N^3-{[(8S,11S,14S)-14-Amino-11-(3-aminopropyl)-17-hydroxy-10,13-dioxo-9,12-diazatricyclo[14.3.1.1^2,6]henicosa-1(20),2(21), 3,5,16,18-hexaen-8-yl]acetyl}-N-[(2S)-2,5-diaminopentyl]-beta-alaninamide tetrahydrochloride”, the step yield (tetrahydrochloride) is 99% of theory.

Turning to “3-Amino-N^2-{[(8S,11S,14S)-14-amino-11-(3-aminopropyl)-17-hydroxy-10,13-dioxo-9,12-diazatricyclo[14.3.1.1^2,6]henicosa-1(20),2(21),3,5,16,18-hexaen-8-yl]acetyl}-N-(2,5-diaminopentyl)-L-alaninamide tetrahydrochloride”, under “tetrahydrochloride”, the step yield is 99% of theory.

Turning to “N-[3-({[(8S 11S, 14S)-14-Amino-11-(3-aminopropyl)-17-hydroxy-10,13-dioxo-9,12-diazatricyclo[14.3.1.1^2,6]henicosa-1(20), 2(21), 3,5,16,18-hexaen-8-yl]acetyl}amino)-2-hydroxypropyl]-L-ornithinamide tetrahydrochloride”, for the setting “tetrahydrochloride”, the step yield is given as 73% of theory.

On to “(3S)-3-Amino-6-[(N^2-{[(8S,11S,14S)-14-amino-11-(3-aminopropyl)-17-hydroxy-10,13-dioxo-9,12-diazatricyclo[14.3.1.1^2,6]henicosa-1(20), 2(21), 3,5,16,18-hexaen-8-yl]acetyl}-L-ornithyl)amino]-N-[(2S)-2,5-diaminopentyl]hexanamide hexahydrochloride”, for which, for the setting “hexahydrochloride”, the step yield is on record as 99% of theory.
